Data on ten sequences can be found in paper PMC12370185.

Some test systems named below: KLF4 + histone octamer; OCT4 + histone octamer; SOX2 + histone octamer.
What all share (test): EMSA with sequencing
What all share (settings): 10 mM Tris-Cl pH 7.5, 50 mM NaCl, 1 mM DTT, 0.25 mg/ml BSA, 2 mM MgCl2, 0.025% Nonidet P-40, 5% glycerol; 28 nM nucleosome library; 10 min on ice then 30 min …; high values mean tight binding; double strand, one strand shown
A general note: Mobility shift assays separate free from complexed probe on a gel.

The subject of assay [1] is c-MYC + MAX + histone octamer.

This is one part of the list.

On to “GATGGACCCTATACGCGGCTGCCTTTGTCCTTTGGTGGCCACGATATCTTCATTGGAAGCGTCTATTGCTGTCATTATTTCTAATTGAAATCATCCTCTACCTCCACACCCTTCCACGAAGGAAACATGGCTTTTATCTTTGTCTTGCACATGCACACAACAGAGGGAGGGAGAATAATTTGCTATTTGCACTTTCAATAATAAAATAGCTGCCAGTCGGATAGTGTTCC”, for which the binding signal (log2 relative supershift) in the assay with KLF4 + histone octamer was found to be 1.71; in the assay on OCT4 + histone octamer it was 0.749; with SOX2 + histone octamer, 1.73; in assay [1], 0.364.

For “GATGGACCCTATACGCGGCTCCCCAGCCGCAGAGGACATGCGGACATGTGTGGGCAGGTCCCTTCTGACCCATGGCAGGTCCCTGTTGATGGTCAGGCTGGGGATCGTGCAGGCCTTTTTGTTATCCCGGGGTCTCCTTCTGAGCTATGCTAACACTGTGCAGTGCCTATAACCAAGAAGAAAAAGGAAAGAAACAGAGGAAACTCAAAGTGCCAGTCGGATAGTGTTCC”, the binding signal (log2 relative supershift) in the assay with KLF4 + histone octamer turned out to be 1.38; with OCT4 + histone octamer it was 0.0233; with SOX2 + histone octamer, 0.28; in assay [1], 0.755.

Regarding “GATGGACCCTATACGCGGCTTTTGATAGTCTGATAGGGCTCTGGCGGATGGTAACTCCCATCTTACCATGTTGCAACTTGCAAGCTTTTGTAGTGCTGATGCTTCTGTTAGACTGGCCCAATCTTGCTTGTCATTAAATTTCCAGTTTACAGCTTGGCATGTCTACACCCTCAGAACATGTTTGTCAAATGAATGAATGAAACAAGGAGATGCCAGTCGGATAGTGTTCC”, the binding signal (log2 relative supershift) in the assay with KLF4 + histone octamer came to 2.29; with OCT4 + histone octamer, 0.00532; in the assay with SOX2 + histone octamer, 1.64; in assay [1], 0.47.

Take “GATGGACCCTATACGCGGCGCAGCTCACAGTATGTTGAAACAAGCTGCTAAGGGGCACAGAGGTGGAGAGCGAGTAGGTTTGTGTGTGCAGATGGGACAAGGTGGGGACGTGAGAAGAAAGGGAGCTCAGGCCACATGGCAGTGGACACTGAGTGAGAATGCTGCCAGGTTATACAGACCCACCCTAGAGTTGGCTTGCTCATTTGTAAATGCCAGTCGGATAGTGTTCC”: the binding signal (log2 relative supershift) with KLF4 + histone octamer came out at 1.97; in the assay with OCT4 + histone octamer, 0.449; with SOX2 + histone octamer, 0.28; in assay [1] it was 0.345.

For “GATGGACCCTATACGCGGCTTTCTGCTTGTGTAACTGAATGATTCTCCTGAATTTACAGCTTCTACCCCTCTATCAGTCATTGTGACAGCACTTCACGGCAATACAACAAGAGAGATTGAAGACAAAGACAACTGATCTGCCCACCAGTCAGATGTGATTACAGCTCTGCACATCAATGTTTAGATTATAAGGCAGTGTATACCATCTTTTGCCAGTCGGATAGTGTTCC”, the binding signal (log2 relative supershift) in the assay with KLF4 + histone octamer worked out at 1.12; in the assay with OCT4 + histone octamer it was 0.469; with SOX2 + histone octamer, 1.11; in assay [1] it was 0.577.

For “GATGGACCCTATACGCGGCGAGGGTGGATAAGAAACACACAGGTGGGACGGTTAACAACATCAGGAGCTGTGGCTTTATGGAAATTTATGTAAGCATGATGAATTGCACACAGCCATTTGTCTCTATTCCCTCCTAACCCTCCATGAAAGTGACAGGAAAGGGACAAAAAGACATTGGCGCACAAAAGCGAAGAGAACATGAAAGGAGTCTGCCAGTCGGATAGTGTTCC”, the binding signal (log2 relative supershift) stood at 2.02 with KLF4 + histone octamer, 0.215 in the assay on OCT4 + histone octamer, 1.34 in the assay on SOX2 + histone octamer and 0.31 in assay [1].

As to “GATGGACCCTATACGCGGCTTCTGAAATTCTTCTTCTGAAAGTTGGGTGTGCCTTGTGCGGTGCATGTGCATATGTGTAGGTACATTATGCACGTGGGTGTGTGTGGGTGTGGCATACTGTTCTCCTGAAGGCACACTTTCTACACTGTTCAGGGGAGGGGAATGATAAAGCCACTTTTTCTCAAGGCAGATGGTATGAAATCCATATTCTGCCAGTCGGATAGTGTTCC”, the binding signal (log2 relative supershift) in the assay on KLF4 + histone octamer came out at 2.17; in the assay on OCT4 + histone octamer, 0.231; in the assay on SOX2 + histone octamer, 0.155; in assay [1], 0.341.

For the sequence “GATGGACCCTATACGCGGCAGAGAATAAACAAACCATGGTTCTGAAATTTGGTAATACACGTCTCTTTGTGAAACCCATGGATTCCCCACCCGAAGCACATGGGCAAGGCACACACAATTTTATGCACATTTCTTGGGGGCATGGACTTTATAAAGCCTATCCATGGACACCTAGGTTGAGAATCTGTGCTCTTCTGGGCCTTTAAAGGGTGCCAGTCGGATAGTGTTCC”, the binding signal (log2 relative supershift) in the assay with KLF4 + histone octamer was 1.7; with OCT4 + histone octamer, 0.585; with SOX2 + histone octamer it was 1.26; in assay [1] it was 0.293.

For the sequence “GATGGACCCTATACGCGGCTAGAACCAGAACTAGCTTAACATGGCATTTAAAACGTAACATAAAGATGCATAACAATGAGATGCCACTTCACACTTATCAGAATGGCTGAAATCCAAAACACTGACACCAATGCTGGCCAAGATGTGGGACAACAGGAATGCTGCTTCATTGCTGGTGGGAATGCAAACTGATACTGCCCTTTGGAAGAGTGCCAGTCGGATAGTGTTCC”, the binding signal (log2 relative supershift) with KLF4 + histone octamer is 1.71; in the assay with OCT4 + histone octamer it was 0.247; in the assay with SOX2 + histone octamer, 0.837; in assay [1], 0.337.

Turning to “GATGGACCCTATACGCGGCTATGTGTGAGAATGTGTAGTTGTGTGCACAAGTGTGTGGGTGTCAGAGAGTGTGTGTGAGTCTGGTGTGTGCATGCATGTGACTCCATGTGGTGTGTGCATGCATGCGTGGGTGTGCCATGGGTGGAGTGTGTATGCAGGTGTATGAATATGTCCATGTGTGTGAGGGTGAGTCTGTGGTGCGTTTGTGCATGCCAGTCGGATAGTGTTCC”, the binding signal (log2 relative supershift) stood at 1.86 in the assay on KLF4 + histone octamer, 0.0555 with OCT4 + histone octamer, 0.525 with SOX2 + histone octamer and 0.823 in assay [1].
